# Screening data, single-dose tests

Amino acid sequences for entries named in this document (tags omitted). Residues count along the entry.
UniProt P9WFT3, whole entry: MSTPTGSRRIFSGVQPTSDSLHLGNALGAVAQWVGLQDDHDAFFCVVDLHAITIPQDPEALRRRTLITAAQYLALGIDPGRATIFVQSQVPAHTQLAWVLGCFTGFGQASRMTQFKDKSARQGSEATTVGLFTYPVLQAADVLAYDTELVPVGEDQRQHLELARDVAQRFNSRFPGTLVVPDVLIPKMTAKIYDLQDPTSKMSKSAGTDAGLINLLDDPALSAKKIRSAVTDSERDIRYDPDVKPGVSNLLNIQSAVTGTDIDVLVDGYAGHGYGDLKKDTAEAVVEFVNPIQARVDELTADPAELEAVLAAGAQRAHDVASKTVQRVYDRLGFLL
UniProt Q4DA54, 1-478: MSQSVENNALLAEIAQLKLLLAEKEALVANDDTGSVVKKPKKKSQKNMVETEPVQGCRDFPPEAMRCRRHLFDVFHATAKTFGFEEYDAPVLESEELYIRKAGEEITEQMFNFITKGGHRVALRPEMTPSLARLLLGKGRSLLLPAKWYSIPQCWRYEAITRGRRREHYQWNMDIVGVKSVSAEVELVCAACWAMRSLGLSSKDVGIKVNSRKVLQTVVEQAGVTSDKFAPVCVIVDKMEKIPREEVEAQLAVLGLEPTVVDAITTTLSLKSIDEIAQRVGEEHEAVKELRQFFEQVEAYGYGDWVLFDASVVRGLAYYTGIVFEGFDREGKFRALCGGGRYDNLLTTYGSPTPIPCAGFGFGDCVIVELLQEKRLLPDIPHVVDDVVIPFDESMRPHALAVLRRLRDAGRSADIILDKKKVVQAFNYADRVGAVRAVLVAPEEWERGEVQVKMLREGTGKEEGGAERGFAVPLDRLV
UniProt Q8IDJ8, 1-583: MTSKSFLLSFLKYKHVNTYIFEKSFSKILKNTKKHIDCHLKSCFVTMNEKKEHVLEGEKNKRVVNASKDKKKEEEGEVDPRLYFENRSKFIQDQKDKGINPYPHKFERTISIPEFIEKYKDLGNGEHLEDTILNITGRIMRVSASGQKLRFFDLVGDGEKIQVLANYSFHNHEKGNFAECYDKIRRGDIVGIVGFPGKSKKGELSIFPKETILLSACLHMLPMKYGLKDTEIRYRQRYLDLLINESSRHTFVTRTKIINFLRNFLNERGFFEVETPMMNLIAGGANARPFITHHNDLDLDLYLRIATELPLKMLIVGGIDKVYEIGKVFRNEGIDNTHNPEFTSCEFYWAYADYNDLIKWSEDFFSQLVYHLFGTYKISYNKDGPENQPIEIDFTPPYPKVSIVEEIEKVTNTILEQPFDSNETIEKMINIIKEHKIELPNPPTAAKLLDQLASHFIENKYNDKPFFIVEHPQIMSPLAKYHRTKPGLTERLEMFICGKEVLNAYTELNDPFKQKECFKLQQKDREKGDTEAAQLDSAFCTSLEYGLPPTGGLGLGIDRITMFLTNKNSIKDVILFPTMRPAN
UniProt P9WNZ1, whole entry: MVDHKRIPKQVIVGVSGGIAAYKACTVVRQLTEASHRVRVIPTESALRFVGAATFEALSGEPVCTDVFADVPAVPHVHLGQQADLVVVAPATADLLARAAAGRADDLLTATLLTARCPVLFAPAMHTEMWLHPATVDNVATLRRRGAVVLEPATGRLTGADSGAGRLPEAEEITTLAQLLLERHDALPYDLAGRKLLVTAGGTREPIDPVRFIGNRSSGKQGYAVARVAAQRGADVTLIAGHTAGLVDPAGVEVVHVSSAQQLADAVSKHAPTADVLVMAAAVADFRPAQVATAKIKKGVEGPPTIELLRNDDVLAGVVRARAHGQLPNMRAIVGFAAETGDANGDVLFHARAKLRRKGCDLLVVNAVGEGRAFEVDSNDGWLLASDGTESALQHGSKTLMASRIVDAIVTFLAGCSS
UniProt I6X8D2, whole entry: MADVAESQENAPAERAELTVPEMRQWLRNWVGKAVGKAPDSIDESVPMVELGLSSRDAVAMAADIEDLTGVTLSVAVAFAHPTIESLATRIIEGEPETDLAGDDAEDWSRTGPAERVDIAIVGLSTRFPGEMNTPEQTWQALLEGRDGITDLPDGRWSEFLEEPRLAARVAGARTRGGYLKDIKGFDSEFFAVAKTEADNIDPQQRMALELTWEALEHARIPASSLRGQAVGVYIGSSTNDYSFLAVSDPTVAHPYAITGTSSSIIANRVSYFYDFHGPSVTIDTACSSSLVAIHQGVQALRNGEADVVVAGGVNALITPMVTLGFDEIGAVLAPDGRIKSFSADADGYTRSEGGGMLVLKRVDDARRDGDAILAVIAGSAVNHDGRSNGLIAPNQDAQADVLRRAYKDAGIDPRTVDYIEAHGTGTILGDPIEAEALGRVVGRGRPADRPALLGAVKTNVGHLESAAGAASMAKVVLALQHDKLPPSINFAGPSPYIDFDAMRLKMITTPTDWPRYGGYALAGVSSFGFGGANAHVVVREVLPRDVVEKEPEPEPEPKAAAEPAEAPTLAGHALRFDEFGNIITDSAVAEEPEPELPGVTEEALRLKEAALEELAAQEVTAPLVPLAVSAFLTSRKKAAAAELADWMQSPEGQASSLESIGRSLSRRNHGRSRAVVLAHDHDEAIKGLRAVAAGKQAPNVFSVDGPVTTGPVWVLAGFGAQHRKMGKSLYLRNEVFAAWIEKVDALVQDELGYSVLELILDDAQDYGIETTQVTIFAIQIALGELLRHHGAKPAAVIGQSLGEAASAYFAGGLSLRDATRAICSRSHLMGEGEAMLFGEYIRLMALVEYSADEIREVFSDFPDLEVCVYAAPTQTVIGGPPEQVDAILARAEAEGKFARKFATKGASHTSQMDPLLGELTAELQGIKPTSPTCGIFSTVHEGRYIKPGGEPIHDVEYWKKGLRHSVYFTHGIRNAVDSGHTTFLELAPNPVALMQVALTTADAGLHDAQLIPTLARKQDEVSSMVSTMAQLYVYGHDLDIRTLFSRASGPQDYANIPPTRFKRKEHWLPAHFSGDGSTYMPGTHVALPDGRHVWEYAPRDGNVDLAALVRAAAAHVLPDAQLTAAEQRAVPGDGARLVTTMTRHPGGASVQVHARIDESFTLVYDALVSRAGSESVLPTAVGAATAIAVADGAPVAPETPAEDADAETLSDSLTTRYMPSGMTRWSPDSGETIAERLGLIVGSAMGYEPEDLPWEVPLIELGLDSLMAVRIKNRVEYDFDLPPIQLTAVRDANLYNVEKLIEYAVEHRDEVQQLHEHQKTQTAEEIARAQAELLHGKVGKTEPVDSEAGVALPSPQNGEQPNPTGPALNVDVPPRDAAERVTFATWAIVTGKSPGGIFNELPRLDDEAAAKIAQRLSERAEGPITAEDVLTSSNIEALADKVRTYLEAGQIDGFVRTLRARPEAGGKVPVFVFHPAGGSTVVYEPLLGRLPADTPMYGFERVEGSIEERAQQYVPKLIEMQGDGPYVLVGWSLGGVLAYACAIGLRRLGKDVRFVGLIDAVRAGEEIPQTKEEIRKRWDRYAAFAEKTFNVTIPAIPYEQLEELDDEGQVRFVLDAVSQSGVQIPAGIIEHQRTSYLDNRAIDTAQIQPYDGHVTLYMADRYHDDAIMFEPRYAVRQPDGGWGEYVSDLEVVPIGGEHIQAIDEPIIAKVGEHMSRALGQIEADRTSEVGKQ

From ChEMBL document CHEMBL3988442, “University of Dundee, Small-Polar-MMV Screening Library” (2021).

MtTrpRS: 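Tryptophan-tRNA ligase, Mycobacterium tuberculosis (UniProt P9WFT3). Enzyme assay of tryptophanyl-tRNA synthetase; the read-out is not stated. Compounds at 10 µM. Direction is not recorded; retested compounds ran higher, which suggests that high means inhibition. Size under these conditions: about 65,000 compounds, about 64 of them at 50% or above in at least one test.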
TcHisRS: 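Histidine-tRNA ligase, Trypanosoma cruzi CL Brener (UniProt Q4DA54). Enzyme assay of histidyl-tRNA synthetase; the read-out is not stated. Concentration: 30 µM. Higher reads as stronger inhibition (inferred: compounds with an IC50 in retests scored well above the rest). Of about 69,000 compounds tested this way, about 31 (0.045%) reached 50% or more in at least one test.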
PfKRS1: 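Lysine-tRNA ligase, Plasmodium falciparum 3D7 (UniProt Q8IDJ8). Enzyme assay of the cytosolic lysyl-tRNA synthetase in 384-well plates, read by luminescence. Concentration: 30 µM. Higher reads as stronger inhibition, judged from the few compounds that gave an IC50. About 69,000 compounds were tested under these conditions; 0.071% (about 49) showed 50% or more at least once.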
CoaBC: 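Enzyme assay of CoaBC with a phosphate dye (Biomol Green) read at 650 nm. Target: Coenzyme A biosynthesis protein CoaBC, Mycobacterium tuberculosis (UniProt P9WNZ1). Compounds at 30 µM. Direction is inferred from only a few compounds that gave an IC50; most scored high, so higher reads as stronger inhibition. Most strong results did not repeat in a second test. About 67,000 compounds were tested under these conditions; 0.06% (about 40) showed 50% or more at least once.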
Pks13 thioesterase: 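Polyketide synthase Pks13, Mycobacterium tuberculosis (UniProt I6X8D2). Enzyme assay of the thioesterase domain of polyketide synthase 13; the read-out is not stated. Compounds at 30 µM. The record gives no direction; the compounds picked for IC50 retests had high values, so higher reads as stronger inhibition. Of about 67,000 compounds tested this way, about 300 (0.46%) reached 50% or more in at least one test.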
Leishmania in macrophages: 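Cell assay of Leishmania donovani living inside macrophages; the read-out is not stated. Tested at 30 µM. The record gives no direction; compounds that gave an IC50 in retests scored well above the rest, so higher reads as stronger inhibition. Size under these conditions: about 69,000 compounds, about 1,000 of them at 50% or above in at least one test.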

Values are the deposited “Percent Effect”, in %.
How 0% and 100% were set is not recorded. Most values in the screen are low, and negative values occur.
This is an unselected part of the compounds tested.

O[C@H]1[C@H](NCCSc2ccccn2)c2ccccc2C12CCNCC2 gave MtTrpRS: 4.568%; TcHisRS: 9.524%; PfKRS1: 3.616%; CoaBC: 3.186%; Pks13 thioesterase: -17.86%; Leishmania in macrophages: 8.02%. COc1ccc(OCCc2cc(C3CNCCO3)nn2C)cc1 (stereo not shown) gave MtTrpRS: 12.59%; TcHisRS: 3.101%; PfKRS1: -2.418%; CoaBC: 16.81%; Pks13 thioesterase: -20.59%; Leishmania in macrophages: 13.3%. CN(C)c1cc(CNC(=O)c2cnccn2)ccn1 gave MtTrpRS: -2.633%; TcHisRS: 4.373%; PfKRS1: -1.3%; CoaBC: 3.916%; Pks13 thioesterase: -0.3548%; Leishmania in macrophages: -0.6344%. Result for Cc1cn2nc(N3CCCC3Cn3nc(C)nc3C)sc2n1 (stereo not shown) was MtTrpRS: -0.6246%; TcHisRS: 3.134%; PfKRS1: 1.273%; CoaBC: -3.217%; Pks13 thioesterase: -14.27%; Leishmania in macrophages: 29.85%. With Cc1cc(C)c(CNc2cnn(CC(O)CN(C)C)c2)c(C)c1 (stereo not shown) the screen gave MtTrpRS: 5.905%; TcHisRS: 6.03%; PfKRS1: -0.1331%; CoaBC: -11.65%; Pks13 thioesterase: -11.55%; Leishmania in macrophages: -6.07%. Result for CC(C)NC(=O)[C@@H]1C[C@H]2OCC[C@H]2N(Cc2ccc3ccccc3n2)C1 was MtTrpRS: 5.16%; TcHisRS: 6.863%; PfKRS1: -3.448%; CoaBC: -1%; Pks13 thioesterase: -47.37%.

O=C(c1cccc(S(=O)(=O)NCCCc2ccco2)c1)N1CCOCC1 gave MtTrpRS: 5.631%; TcHisRS: 3.306%; PfKRS1: 2.214%; CoaBC: -5.33%; Pks13 thioesterase: -3.29%; Leishmania in macrophages: 1.503%. For CNC(=O)[C@@H]1COC[C@H]2CN(C(=O)c3ccc(C)c(C)c3)C[C@H]21 the result was MtTrpRS: 1.762%; TcHisRS: 3.226%; PfKRS1: 8.085%; CoaBC: 2.326%; Pks13 thioesterase: 18.84%. Result for [H][C@@]12COC[C@@H](CC(=O)N3CCN(C)CC3)[C@]1([H])CN(c1ccncn1)C2 was Leishmania in macrophages: 5.793%. CN(C)S(=O)(=O)N1CCCC(c2ccncn2)C1 (stereo not shown) gave MtTrpRS: 1.255%; TcHisRS: 1.521%; PfKRS1: -0.623%; CoaBC: 2.843%; Pks13 thioesterase: -9.871%; Leishmania in macrophages: 15.62%. For CCC(C)N(Cc1cnc(NC(C)C)nc1)Cc1ccsc1 (stereo not shown) the result was MtTrpRS: 0.4881%; TcHisRS: 3.863%; PfKRS1: 1.022%; CoaBC: 4.426%; Pks13 thioesterase: -14.17%; Leishmania in macrophages: 18.33%. For Cc1noc(C)c1CN1CC[C@H]2OCC[C@@]2(C(=O)NC2CCCC2)C1 the result was MtTrpRS: 1.146%; TcHisRS: 10.92%; PfKRS1: 1.489%; CoaBC: -1.826%; Pks13 thioesterase: -1.388%.

With CC(C)c1cc(=O)[nH]c(-c2ccccc2CN2CCCCCC2)n1 the screen gave MtTrpRS: 4.583%; TcHisRS: 5.699%; PfKRS1: 5.597%; CoaBC: 5.051%; Pks13 thioesterase: -1.504%; Leishmania in macrophages: 1.494%. With O=C(C1CCCc2[nH]ncc21)N1CCCC2(C1)OCCO2 (stereo not shown) the screen gave MtTrpRS: -0.09234%; TcHisRS: 5.291%; PfKRS1: 1.885%; CoaBC: -5.72%; Pks13 thioesterase: -18.69%; Leishmania in macrophages: 16.4%. [H][C@]12CCN(C(=O)c3cc(C)oc3C)C[C@@]1([H])OCCN(c1ncccn1)C2 read Leishmania in macrophages: 19.83%. Result for COc1ncccc1CN1CCC2(CCCN2S(C)(=O)=O)CC1 was MtTrpRS: -0.1079%; TcHisRS: -24.05%; PfKRS1: 11.92%; Pks13 thioesterase: -8.015%. For CC(CNCc1ccc(Br)cc1)Oc1ccccn1 (stereo not shown) the result was MtTrpRS: 3.011%; TcHisRS: -1.754%; PfKRS1: -0.5576%; CoaBC: -0.2525%; Pks13 thioesterase: -24.95%.